According to paper PMC10853725:
No constants are given. Whether binding was seen depends on the method and setting. In cells and extracts the contact can be indirect. Here binding means that the protein was enriched with, or labelled near, the bait; the list need not be complete. Sequences can lack the tags named with a protein.

By UniProt entry, the sequences of proteins in these tests, tags left out.
UniProt Q61188: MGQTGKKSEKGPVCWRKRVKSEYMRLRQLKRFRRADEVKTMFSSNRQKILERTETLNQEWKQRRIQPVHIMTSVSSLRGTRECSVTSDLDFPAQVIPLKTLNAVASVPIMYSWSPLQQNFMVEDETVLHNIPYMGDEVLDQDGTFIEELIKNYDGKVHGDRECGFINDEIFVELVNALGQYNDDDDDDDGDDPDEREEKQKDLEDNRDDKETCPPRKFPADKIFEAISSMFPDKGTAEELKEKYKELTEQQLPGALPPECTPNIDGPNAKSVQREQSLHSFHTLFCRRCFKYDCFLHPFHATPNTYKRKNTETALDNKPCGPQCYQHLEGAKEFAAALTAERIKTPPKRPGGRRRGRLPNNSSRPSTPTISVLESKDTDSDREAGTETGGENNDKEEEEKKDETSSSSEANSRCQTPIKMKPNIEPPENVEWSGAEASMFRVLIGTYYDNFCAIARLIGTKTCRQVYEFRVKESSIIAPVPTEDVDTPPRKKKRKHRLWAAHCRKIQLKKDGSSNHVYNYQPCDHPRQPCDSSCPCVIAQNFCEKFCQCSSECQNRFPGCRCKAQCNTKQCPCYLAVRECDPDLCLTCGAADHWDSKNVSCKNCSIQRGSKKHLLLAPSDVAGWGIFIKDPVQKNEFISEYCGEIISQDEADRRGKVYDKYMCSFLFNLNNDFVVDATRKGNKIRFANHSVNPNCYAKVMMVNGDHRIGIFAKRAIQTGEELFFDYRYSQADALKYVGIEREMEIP
UniProt Q8BKJ9: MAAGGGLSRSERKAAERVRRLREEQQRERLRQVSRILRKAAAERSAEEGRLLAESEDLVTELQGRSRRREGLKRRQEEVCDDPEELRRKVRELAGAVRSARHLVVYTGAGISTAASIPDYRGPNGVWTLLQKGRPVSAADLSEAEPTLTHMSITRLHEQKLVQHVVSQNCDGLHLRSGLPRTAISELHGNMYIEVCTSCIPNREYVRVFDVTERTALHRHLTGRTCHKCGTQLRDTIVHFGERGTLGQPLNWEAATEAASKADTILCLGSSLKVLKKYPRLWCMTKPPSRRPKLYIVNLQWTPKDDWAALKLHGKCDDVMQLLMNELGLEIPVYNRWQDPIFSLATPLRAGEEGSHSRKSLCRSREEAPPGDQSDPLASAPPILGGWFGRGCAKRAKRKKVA

T1: FLAG-tagged Engrailed-1 (EN1) (UniProt P09065)
T1 sequence: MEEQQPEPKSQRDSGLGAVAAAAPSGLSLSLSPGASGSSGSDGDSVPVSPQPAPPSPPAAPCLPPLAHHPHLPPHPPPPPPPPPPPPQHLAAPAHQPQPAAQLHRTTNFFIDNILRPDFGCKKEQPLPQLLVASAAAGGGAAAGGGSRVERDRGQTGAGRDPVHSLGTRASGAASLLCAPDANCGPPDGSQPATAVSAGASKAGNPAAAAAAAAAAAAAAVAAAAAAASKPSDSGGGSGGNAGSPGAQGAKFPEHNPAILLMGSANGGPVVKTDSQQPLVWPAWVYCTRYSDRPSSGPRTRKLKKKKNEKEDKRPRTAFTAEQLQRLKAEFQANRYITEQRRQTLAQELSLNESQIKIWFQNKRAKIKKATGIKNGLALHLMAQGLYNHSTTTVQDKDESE

B1: ARID4B (protein, UniProt A2CG63 1-1314)
chain: MKALDEPPYLTVGTDVSAKYRGAFCEAKIKTAKRLVKVKVTFRHDSSTVEVQDDHIKGPLKVGAIVEVKNLDGAYQEAVINKLTDASWYTVVFDDGDEKTLRRSSLCLKGERHFAESETLDQLPLTNPEHFGTPVIGKKTNRGRRSNHIPEEESSSSSSDDDEEERKQTDELLGKVVCVDYVSLEKKKAMWFPALVVCPDCSDEIAVKKDNILVRSFKDGKFTSVPRKDVHEITSDTVPKPDAVLKQAFDQALEFHKSRAIPANWKTELKEDSSSSEAEEEEEEEDDEKEKEDNSSEEEEEIEPFPEERENFLQQLYKFMEDRGTPINKRPVLGYRNLNLFKLFRLVHKLGGFDNIESGAVWKQVYQDLGIPVLNSAAGYNVKCAYKKYLYGFEEYCRSANIDFQMALPEKVLNKPCKDCENKEVKVKEESETEIKEVNVEDSKNVMPKEETPAEDESERKENIKPSLGSKKSLLECIPAQSDEEKEAHITKLEENENLEDKDGGRARTEEAFSTEVDGEEEQARSGDETNKEEDEDDEEIEEEEEEDEEEDEDEDDDDNNEEEEFECYPPGMKVQVRYGRGKNQKMYEASIKDSDVEGGEALYLVHYCGWNVRYDEWIKADKIVRPADKNVPKIKHRKKIKNKLDKEKDRDEKYSPKNCKLRRLSKSPFQSNPSPEMVSKLDLADAKNSDTAHIKSIEITSILNGLQASESSAEDSEQEDERCTQDVDNIGKDESKVEHSTHSRNELISKEEQSSPSLLEENKVHTDLVIAKTVSKSPERLRKDMEAISEDTDFEEEDEITKKRKDVKKDTTDKALKPQTKRGKRRYCSADECLQTGSPGKKEDRTKSKEPLCTENSSNSSSDEDEEEKSKAKMTPTKKYNGLEEKRKSLRTTSFYSGFSEVAEKRIKLLNNSDERLQNNRAKDRKDVWSSIQGQWPKKTLKELFSDSDTEAAASPPHPAPDEGAVEESLQTVAEEESCSPIMELEKPLPASVDNKPIEEKPLEVSDRKTEFPSSGSNSVLNTPPTTPESPSSVTITEASQQQSSVTVSVPLPPNQEEVRSIKSETDSTIEVDSVVGELQDLQSEGNSSPAGFDASVSSSSSNQPEPDNPEKACTGQKRVKDTQGVGSSSKKQKRSHKATVVNNKKKGKGTNSSDSEELSAGESVTKTQTIKSVPTGMKTHNSKSPARVQSPGKGGRNGDKDPDLKEPSNRLPKVYKWSFQTSDLENMTSAERISILQEKLQEIRKHYLSLKSEVASIDRRRKRLKKKERESAATSSSSSSPSSSSITAAVMLTLAEPSMSSASQNGMSVECR
B2: MED9 (protein, UniProt Q8VCS6 1-142)
chain: MASSGVAGGRQAEDTLQPPPELLPESKPPPPPQPLPVAALPPPAAPRPQSPAGAKEENYSFLPLVHNVIKCMDKDSPDLHQDLNALKTKFQELRKLIGTMPGIHVSPEQQQQQLHSLREQVRTKNELLQKYKSLCMFEIPKD
B3: MCPH1 (protein, UniProt Q7TT79 1-822)
chain: MEASGGVGGAFLKDVVAYVEVWSSKGTENYSRTFAKQLEDMGATVSKTLNKQVTHVIFKDGYQSTWDKAQKTGAKLVSVLWVEKCRMAGALVDESLFPAVNTDEHLPNLSRKKHKCMQPKDFILKTPENDKRLQKKFEKMAEELQRQKAALDDDVPVLLFESPRSLVYSSPVNVMKRRLQDMKEKRENLSPTSSQMLEQSQQNPCVSLFETSLNISHQPLSSDESFASGSHSSFGDSCGDQERKLGRSANEMTTVTCPSSPVLRASSFYGSASPNHLRQPRPQKAPDSPSKESINCQKDATGAVADSERKQAAGVSQGVPDEKLCLSPTMSIIEEHQVRLGPKNSSAKRKRAADLGSSPKGKLKKRYKRKSALAIQLFKSDQSPPSTIRLIPGTPDVEASSYEDYFSPDNLKERNSERLPPEAQQLASPSLFHCRGLSKWERRNMLEMCDFTCIGEKHRSISSISDLISKSASSLEKPVKEEVNTASTCLLLVETSANDSPGLCSQPGPQLRDDTGPEGSSHPDTLSSSAHHITPLKGNSTETRDPGDGKGSPKEGSTPPASASPEDEVHICNLSLGEDCNVEKSVEEKENIATGYSESVKNGPGRPDPSDSSCTGLVRPQQKPKKSEKEEKPTRTLVMTSMPSEKQTLIIQVVSTLKGFSFAPEVCETTTHVLVGKSARTLNVLMGIARGCWILSYEWVLLSLELGHWISEEPFELSETFPAAPICRLERHLSTQQYQGTLFANQPKMFIAPASSPPRAKLCELVLLCGGQVSPAPQLASLIIGPYKGKKKARIQYLSEKWVLDSITQHKICDFNNYQLLQ

Target: T1, FLAG-tagged Engrailed-1 (EN1)
Assay: affinity purification with mass spectrometry; nuclear complex co-immunoprecipitation of FLAG-tagged EN1 (Active Motif kit, high stringency buffer), Protein A/G magnetic beads, 5 µg antibody per reaction, LC-MS/MS; mT3-2D and mT19-2D cells overexpressing EN1; hits by log2 fold change >2 against the control, two independent biological samples

Q: With EZH2 (from UniProt Q61188 1-746) as the molecule, how does the binding read?
A: binds

Q: How did the binding turn out when SIRT7 (from UniProt Q8BKJ9 1-402) was run?
A: binds

Q: “ZFP819 (mouse (endogenous in mT3-2D and mT19-2D))” was tested. Which binding did it give?
A: binds

Q: Which binding does the source give for B1 here?
A: binds

Q: With B2 as the molecule, how does the binding read?
A: binds

Q: How did the binding turn out when B3 was run?
A: binds
